Results are given in words; binding and its absence hold for the method and conditions named. Some binding calls cover weakened binding; strength is not graded here.
B1: D-H3 in human IgG4(S228P) format (antibody, V domains shown)
VH: EVQLVQSGAEVKKPGESLKISCKGSGYSFTNYYIFWVRQMPGKGLEWMGDINPVNGDTNYSPSFQGQVTISADKSISTAYLQWSSLKASDTAMYYCARGGYTPDYWGQGTLVTVSS
VL: DIVMTQSPLSLPVTPGEPASISCRSSQSLLHSNGYNYLHWYLQKPGQSPQLLIYKGSNRFSGVPDRFSGSGSGTDFTLKISRVEAEDVGVYYCSQNLHVPRTFGQGTKVEIK
B2: A-D5 in human IgG1null format (antibody, V domains shown)
VH: EVQLVQSGAEVKKPGESLKISCKGSGYTFTNYYIFWVRQMPGKGLEWMGIINPVDGDTNYNPSFQGQVTISADKSISTAYLQWSSLKASDTAMYYCARGGYTMDRWGQGTLVTVSS
VL: DIVMTQSPLSLPVTPGEPASISCRSSQSLLHSNGYTYLHWYLQKPGQSPQLLIYKVSNRLSGVPDRFSGSGSGTDFTLKISRVEAEDVGVYYCFQNTHTPRTFGQGTKVEIK
B3: A-D5.4 in human IgG1null format (antibody, V domains shown)
VH: EVQLVQSGAEVKKPGESLKISCKGSGYTFTNYYIFWVRQMPGKGLEWMGIINPVDGDTNYNPSFQGQVTISADKSISTAYLQWSSLKASDTAMYYCARGGYTMDRWGQGTLVTVSS
VL: DIVMTQSPLSLPVTPGEPASISCRSSQSLLHSNGYNYLHWYLQKPGQSPQLLIYKVSNRLSGVPDRFSGSGSGTDFTLKISRVEAEDVGVYYCFQNTHTPRTFGQGTKVEIK
B4: A-D5.10 in human IgG1null format (antibody, V domains shown)
VH: EVQLVQSGAEVKKPGESLKISCKGSGYTFTNYYIFWVRQMPGKGLEWMGIINPVDGDTNYNPSFQGQVTISADKSISTAYLQWSSLKASDTAMYYCARGGYTMDRWGQGTLVTVSS
VL: DIVMTQSPLSLPVTPGEPASISCRSSQSLLHSQGYTYLHWYLQKPGQSPQLLIYKVSNRLSGVPDRFSGSGSGTDFTLKISRVEAEDVGVYYCFQQTHTPRTFGQGTKVEIK
B5: mVH/mVL (chimeric VxP037) in human IgG1null format (antibody, V domains shown)
VH: EVQLQQFGAELVKPGASMKLSCKASGYTFTNYYVFWVKQRPGQGLEWIGDINPVNGDTNFNEKFKNKATLTVDKSSTTTYLQLSSLTSEDSAVYYCTRGGYTMDYWGQGTLVTVSS
VL: DVVMTQTPLSLSVSLGDQASISCRSSQSLVHSNGNTYLHWYLQKPGQSPKLLIYKVSYRFSGVPDRFSGSGSGTDFTLKISRVEAEDLGVYFCSQNTHVPRTFGQGTKVEIK
B6: A-D5.11 in human IgG1null format (antibody, V domains shown)
VH: EVQLVQSGAEVKKPGESLKISCKGSGYSFTNYYIFWVRQMPGKGLEWMGIINPVDGDTNYNPSFQGQVTISADKSISTAYLQWSSLKASDTAMYYCARGGYTMDRWGQGTLVTVSS
VL: DIVMTQSPLSLPVTPGEPASISCRSSQSLLHSNGYNYLHWYLQKPGQSPQLLIYKVSNRLSGVPDRFSGSGSGTDFTLKISRVEAEDVGVYYCFQNTHTPRTFGQGTKVEIK
B7: A-D5.12 in human IgG1null format (antibody, V domains shown)
VH: EVQLVQSGAEVKKPGESLKISCKGSGYSFTNYYIFWVRQMPGKGLEWMGIINPVDGDTRYNPSFQGQVTISADKSISTAYLQWSSLKASDTAMYYCARGGYTMDRWGQGTLVTVSS
VL: DIVMTQSPLSLPVTPGEPASISCRSSQSLLHSNGYNYLHWYLQKPGQSPQLLIYKVSNRLSGVPDRFSGSGSGTDFTLKISRVEAEDVGVYYCFQNTHTPRTFGQGTKVEIK
B8: A-D5.13 in human IgG1null format (antibody, V domains shown)
VH: EVQLVQSGAEVKKPGESLKISCKGSGYSFTNYYIFWVRQMPGKGLEWMGIINPVDGDTRYSPSFQGQVTISADKSISTAYLQWSSLKASDTAMYYCARGGYTMDRWGQGTLVTVSS
VL: DIVMTQSPLSLPVTPGEPASISCRSSQSLLHSNGYNYLHWYLQKPGQSPQLLIYKVSNRLSGVPDRFSGSGSGTDFTLKISRVEAEDVGVYYCFQNTHTPRTFGQGTKVEIK
B9: A-D5.14 in human IgG1null format (antibody, V domains shown)
VH: EVQLVQSGAEVKKPGESLKISCKGSGYSFTNYYIFWVRQMPGKGLEWMGIINPVDGDTRYSPSFQGQVTISADKSISTAYLQWSSLKASDTAMYYCARGGYTMDRWGQGTLVTVSS
VL: DIVMTQSPLSLPVTPGEPASISCRSSQSLLHSSGYNYLHWYLQKPGQSPQLLIYKVSNRLSGVPDRFSGSGSGTDFTLKISRVEAEDVGVYYCFQNTHTPRTFGQGTKVEIK
B10: A-D5.15 in human IgG1null format (antibody, V domains shown)
VH: EVQLVQSGAEVKKPGESLKISCKGSGYSFTNYYIFWVRQMPGKGLEWMGIINPVDGDTRYSPSFQGQVTISADKSISTAYLQWSSLKASDTAMYYCARGGYTMDRWGQGTLVTVSS
VL: DIVMTQSPLSLPVTPGEPASISCRSSQSLLHSGGYNYLHWYLQKPGQSPQLLIYKVSNRLSGVPDRFSGSGSGTDFTLKISRVEAEDVGVYYCFQNTHTPRTFGQGTKVEIK
B11: A-D5.16 in human IgG1null format (antibody, V domains shown)
VH: EVQLVQSGAEVKKPGESLKISCKGSGYSFTNYYIFWVRQMPGKGLEWMGIINPVDGDTRYSPSFQGQVTISADKSISTAYLQWSSLKASDTAMYYCARGGYTMDRWGQGTLVTVSS
VL: DIVMTQSPLSLPVTPGEPASISCRSSQSLLHSAGYNYLHWYLQKPGQSPQLLIYKVSNRLSGVPDRFSGSGSGTDFTLKISRVEAEDVGVYYCFQNTHTPRTFGQGTKVEIK
B12: A-D5.17 in human IgG1null format (antibody, V domains shown)
VH: EVQLVQSGAEVKKPGESLKISCKGSGYSFTNYYIFWVRQMPGKGLEWMGIINPVDGDTRYSPSFQGQVTISADKSISTAYLQWSSLKASDTAMYYCARGGYTMDRWGQGTLVTVSS
VL: DIVMTQSPLSLPVTPGEPASISCRSSQSLLHSTGYNYLHWYLQKPGQSPQLLIYKVSNRLSGVPDRFSGSGSGTDFTLKISRVEAEDVGVYYCFQNTHTPRTFGQGTKVEIK
B13: A-D5.18 in human IgG1null format (antibody, V domains shown)
VH: EVQLVQSGAEVKKPGESLKISCKGSGYSFTNYYIFWVRQMPGKGLEWMGIINPVDGDTRYSPSFQGQVTISADKSISTAYLQWSSLKASDTAMYYCARGGYTMDRWGQGTLVTVSS
VL: DIVMTQSPLSLPVTPGEPASISCRSSQSLLHSNAYNYLHWYLQKPGQSPQLLIYKVSNRLSGVPDRFSGSGSGTDFTLKISRVEAEDVGVYYCFQNTHTPRTFGQGTKVEIK
B14: A-D5.16-DI in human IgG1null format (antibody, V domains shown)
VH: EVQLVQSGAEVKKPGESLKISCKGSGYSFTNYYIFWVRQMPGKGLEWMGIINPVDGDTRYSPSFQGQVTISADKSISTAYLQWSSLKASDTAMYYCARGGYTMDRWGQGTLVTVSS
VL: DIVMTQSPLSLPVTPGEPASISCRSSQSLLHSAGYNYLHWYLQKPGQSPQLLIYKVSNRFSGVPDRFSGSGSGTDFTLKISRVEAEDAGVYYCFQNTHTPRTFGQGTKVEIK
B15: mVH/mVL (chimeric VxP037) in human IgG1 format (antibody, V domains shown)
VH: EVQLQQFGAELVKPGASMKLSCKASGYTFTNYYVFWVKQRPGQGLEWIGDINPVNGDTNFNEKFKNKATLTVDKSSTTTYLQLSSLTSEDSAVYYCTRGGYTMDYWGQGTLVTVSS
VL: DVVMTQTPLSLSVSLGDQASISCRSSQSLVHSNGNTYLHWYLQKPGQSPKLLIYKVSYRFSGVPDRFSGSGSGTDFTLKISRVEAEDLGVYFCSQNTHVPRTFGQGTKVEIK
B16: mVH/mVL (chimeric VxP037) in human IgG4(S228P) format (antibody, V domains shown)
VH: EVQLQQFGAELVKPGASMKLSCKASGYTFTNYYVFWVKQRPGQGLEWIGDINPVNGDTNFNEKFKNKATLTVDKSSTTTYLQLSSLTSEDSAVYYCTRGGYTMDYWGQGTLVTVSS
VL: DVVMTQTPLSLSVSLGDQASISCRSSQSLVHSNGNTYLHWYLQKPGQSPKLLIYKVSYRFSGVPDRFSGSGSGTDFTLKISRVEAEDLGVYFCSQNTHVPRTFGQGTKVEIK
B17: A-D5 in human IgG4(S228P) format (antibody, V domains shown)
VH: EVQLVQSGAEVKKPGESLKISCKGSGYTFTNYYIFWVRQMPGKGLEWMGIINPVDGDTNYNPSFQGQVTISADKSISTAYLQWSSLKASDTAMYYCARGGYTMDRWGQGTLVTVSS
VL: DIVMTQSPLSLPVTPGEPASISCRSSQSLLHSNGYTYLHWYLQKPGQSPQLLIYKVSNRLSGVPDRFSGSGSGTDFTLKISRVEAEDVGVYYCFQNTHTPRTFGQGTKVEIK
B18: G-B6 in human IgG4(S228P) format (antibody, V domains shown)
VH: EVQLVQSGAEVKKPGESLKISCKGSGYSFTNYYIFWVRQMPGKGLEWIGDINPVNGDTNFSPSFQGQVTISADKSISTAYLQWSSLKASDTAMYYCARGGYTMDKWGQGTLVTVSS
VL: DIVMTQSPLSLPVTPGEPASISCRSSQSLVHSNGYTYLHWYLQKPGQSPQLLIYKGSYRASGVPDRFSGSGSGTDFTLKISRVEAEDVGVYYCSQNTQTPRTFGQGTKVEIK
B19: F-E7 in human IgG4(S228P) format (antibody, V domains shown)
VH: EVQLVQSGAEVKKPGESLKISCKGSGYSFTNYYIFWVRQMPGKGLEWMGIINPVNGDTNYNPSFQGQVTISADKSISTAYLQWSSLKASDTAMYYCARGGYTMGKWGQGTLVTVSS
VL: DIVMTQSPLSLPVTPGEPASISCRSSQSLVHSNGNTYLDWYLQKPGQSPQLLIYKGSYRFSGVPDRFSGSGSGTDFTLKISRVEAEDVGVYYCSQATHTPRTFGQGTKVEIK

Tests used:
[1] = biological target: cynomolgus monkey CD47 on transfected CHO-K1 cells (cynomolgus monkey); experiment: flow cytometry, cyno CD47-transfected CHO-K1, FIG. 6A
[2] = biological target: cynomolgus monkey CD47-Fc (cynomolgus monkey); experiment: direct titration ELISA, FIG. 3
[3] = biological target: cynomolgus monkey CD47-Fc (cynomolgus monkey); experiment: summary of the ELISAs above
[4] = biological target: cynomolgus monkey CD47-Fc (cynomolgus monkey); experiment: direct specificity ELISA, IgG 1 µg/ml, FIG. 5C
[5] = biological target: cynomolgus monkey CD47-Fc (cynomolgus monkey); experiment: direct titration ELISA, FIG. 9B
[6] = biological target: cynomolgus monkey CD47-Fc (cynomolgus monkey); experiment: direct specificity ELISA, IgG 10 µg/ml, FIG. 13A
[7] = biological target: cynomolgus monkey CD47-Fc (cynomolgus monkey); experiment: direct specificity ELISA, IgG 1 µg/ml, FIG. 5B
[8] = biological target: cynomolgus monkey CD47-Fc (cynomolgus monkey); experiment: direct titration ELISA, FIG. 11B
[9] = biological target: cynomolgus monkey CD47-Fc (cynomolgus monkey); experiment: direct titration ELISA, FIG. 18B
[10] = biological target: cynomolgus monkey CD47-Fc (cynomolgus monkey); experiment: direct specificity ELISA, IgG 10 µg/ml, FIG. 13B
[11] = biological target: cynomolgus monkey CD47-Fc (cynomolgus monkey); experiment: direct specificity ELISA, IgG 1 µg/ml, FIG. 5A

Binder	binding [1]	binding [8]	further results
B1	binds	–	–
B2	binds	–	binding [2]: binds; binding [3]: binds; binding [4]: binds
B3	–	–	binding [5]: binds; binding [6]: binds
B4	–	–	binding [5]: binds
B5	binds	binds	binding [2]: binds; binding [7]: binds; binding [9]: binds
B6	–	binds	–
B7	–	binds	–
B8	–	binds	–
B9	–	binds	–
B10	–	binds	–
B11	–	binds	binding [10]: binds; binding [9]: binds
B12	–	binds	–
B13	–	binds	–
B14	–	–	binding [9]: binds
B15	–	–	binding [11]: binds
B16	binds	–	–
B17	binds	–	–
B18	binds	–	–
B19	binds	–	–
